Measurements from the supplement of paper PMC12823440, “Inhibitors supercharge kinase turnover through native proteolytic circuits” (Nature, 2025).
Where a name gives a salt, the structure may show the parent alone. The list shows a part of the results. The calls rarely recur for the same compound in another form.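 Kinases, fused to nanoluciferase, were expressed in K562 cells; luminescence was measured every 4 h from 2 to 18 h as percent of control (DMSO = 100%, positive control = 0%). A time point is decreased if signal falls significantly (2 sigma). Hits were called by the authors by a rule that is not shown; the count of time points alone does not decide it.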

Chains of the proteins cited; added tags and fusions are not shown.
UniProt P42356, whole entry, looked up: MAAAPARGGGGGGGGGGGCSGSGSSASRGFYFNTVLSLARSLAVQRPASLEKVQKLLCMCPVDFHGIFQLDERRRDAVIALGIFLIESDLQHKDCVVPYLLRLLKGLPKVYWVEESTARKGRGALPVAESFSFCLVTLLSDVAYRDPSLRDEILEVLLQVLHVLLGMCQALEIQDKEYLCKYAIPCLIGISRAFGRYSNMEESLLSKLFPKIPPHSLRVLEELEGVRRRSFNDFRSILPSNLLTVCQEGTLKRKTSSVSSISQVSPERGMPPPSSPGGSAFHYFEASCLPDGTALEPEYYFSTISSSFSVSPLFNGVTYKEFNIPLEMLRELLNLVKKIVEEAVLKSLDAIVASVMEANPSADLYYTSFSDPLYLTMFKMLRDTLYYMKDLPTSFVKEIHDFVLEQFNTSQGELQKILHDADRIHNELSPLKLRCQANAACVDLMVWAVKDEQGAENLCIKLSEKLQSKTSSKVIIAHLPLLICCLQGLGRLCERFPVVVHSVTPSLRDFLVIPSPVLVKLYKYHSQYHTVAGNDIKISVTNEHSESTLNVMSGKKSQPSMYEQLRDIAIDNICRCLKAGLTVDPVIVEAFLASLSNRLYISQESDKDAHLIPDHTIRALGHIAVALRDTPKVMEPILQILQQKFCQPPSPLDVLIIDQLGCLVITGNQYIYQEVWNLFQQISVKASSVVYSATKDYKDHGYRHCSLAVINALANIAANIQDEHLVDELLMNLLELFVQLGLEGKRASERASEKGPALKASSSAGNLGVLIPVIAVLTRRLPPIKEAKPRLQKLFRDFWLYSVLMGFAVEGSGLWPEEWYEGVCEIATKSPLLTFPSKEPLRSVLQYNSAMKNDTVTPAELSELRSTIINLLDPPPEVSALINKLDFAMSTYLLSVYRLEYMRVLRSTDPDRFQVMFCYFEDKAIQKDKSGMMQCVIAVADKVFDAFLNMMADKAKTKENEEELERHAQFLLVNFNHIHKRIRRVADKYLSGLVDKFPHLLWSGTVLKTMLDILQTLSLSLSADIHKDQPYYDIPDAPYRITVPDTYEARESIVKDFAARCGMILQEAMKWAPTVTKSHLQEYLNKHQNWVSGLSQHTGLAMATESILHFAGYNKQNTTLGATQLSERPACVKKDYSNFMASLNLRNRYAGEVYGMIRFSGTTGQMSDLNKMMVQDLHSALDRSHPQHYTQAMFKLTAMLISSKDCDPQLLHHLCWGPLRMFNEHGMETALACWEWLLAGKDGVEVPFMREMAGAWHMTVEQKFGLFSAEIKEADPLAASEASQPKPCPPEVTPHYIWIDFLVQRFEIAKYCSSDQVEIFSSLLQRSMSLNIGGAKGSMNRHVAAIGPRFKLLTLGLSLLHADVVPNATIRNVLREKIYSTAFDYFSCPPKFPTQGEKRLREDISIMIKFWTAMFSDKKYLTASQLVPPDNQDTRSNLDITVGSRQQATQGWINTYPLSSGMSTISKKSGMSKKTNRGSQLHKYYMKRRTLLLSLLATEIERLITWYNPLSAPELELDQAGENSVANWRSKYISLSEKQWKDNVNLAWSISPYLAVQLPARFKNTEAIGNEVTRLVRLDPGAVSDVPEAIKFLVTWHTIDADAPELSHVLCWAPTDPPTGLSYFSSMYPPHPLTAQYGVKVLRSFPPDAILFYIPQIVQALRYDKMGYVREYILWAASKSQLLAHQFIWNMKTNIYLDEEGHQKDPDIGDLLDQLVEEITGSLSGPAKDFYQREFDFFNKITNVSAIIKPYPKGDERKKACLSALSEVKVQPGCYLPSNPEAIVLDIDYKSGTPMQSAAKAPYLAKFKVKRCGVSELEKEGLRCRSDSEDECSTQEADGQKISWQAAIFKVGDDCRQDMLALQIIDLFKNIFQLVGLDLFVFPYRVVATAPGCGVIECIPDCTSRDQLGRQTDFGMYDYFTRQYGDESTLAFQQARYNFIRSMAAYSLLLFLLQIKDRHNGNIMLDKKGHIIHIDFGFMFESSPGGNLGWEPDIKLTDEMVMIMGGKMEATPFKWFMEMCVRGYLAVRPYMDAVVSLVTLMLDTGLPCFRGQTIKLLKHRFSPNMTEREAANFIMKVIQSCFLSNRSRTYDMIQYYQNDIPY

These molecules were tested against PIK4CA (UniProt P42356) (assay: number of time points (of 5) at which kinase-Nluc abundance scored as decreased, DMSO-normalised (count); higher = more persistent destabilization). Conditions: K562; 2-18 h.

Q: FC(F)(F)c1ccc(CNc2ccc(Cc3c[nH]c4ncccc34)cn2)cc1 (10 µM) was tested. Which “number of time points” value did it give?
A: Its value is 0.

Q: With c1ccc(-c2[nH]ncc2-c2ccnc3ccccc23)nc1 (10 µM) as the molecule, how does the “number of time points” value read?
A: Its value is 0.

Q: With CC#CC(=O)N1CC[C@@H](n2c(=O)n(-c3ccc(Oc4ccccc4)cc3)c3c(N)ncnc32)C1 [Tirabrutinib (hydrochloride)] (10 µM) as the molecule, how does the “number of time points” value read?
A: Its value is 0.

Q: With CC1=C(C(=O)O)N2C(=O)[C@@H](NC(=O)[C@H](N)C3=CCC=CC3)[C@H]2SC1 [Cephradine] (10 µM) as the molecule, how does the “number of time points” value read?
A: The value was 0.

Q: For Cn1cc(-c2ccc3nnc(Sc4ccc5ncccc5c4)n3n2)cn1 (10 µM), which “number of time points” value is on record?
A: The value was 0.

Q: CC(=O)c1c(C)cc2cccc(O)c2c1O [Nepodin] (10 µM) was tested. Which “number of time points” value did it give?
A: The value was 0.

Q: NCCNS(=O)(=O)c1cccc2c(Cl)cccc12 [A-3 (hydrochloride)] (10 µM) was tested. Which “number of time points” value did it give?
A: The value was 0.

Q: N#Cc1c(C2CCNCC2)cc(-c2c(O)cccc2OCC2CC2)nc1N [ACHP (Hydrochloride)] (10 µM) was tested. Which “number of time points” value did it give?
A: The value was 0.

Q: With C[C@@H]1COCCN1c1cc(C2([S@@](C)(=N)=O)CC2)nc(-c2ccnc3[nH]ccc23)n1 [(S)-Ceralasertib] (10 µM) as the molecule, how does the “number of time points” value read?
A: The value was 0.

Q: How did the “number of time points” value turn out when NC(=O)c1nc(Nc2ccccc2)sc1NC(=O)C1CCCCC1 (10 µM) was run?
A: Its value is 0.

Q: How did the “number of time points” value turn out when Cc1cc(Nc2ncnc3ccc(NC4=NC(C)(C)CO4)cc23)ccc1Oc1ccn2ncnc2c1 [Tucatinib (hemiethanolate)] (2.5 µM) was run?
A: The value was 0.

Q: Cc1ccc(C(=O)Nc2ccc(Oc3cc4cnn(C)c4cc3-c3cn[nH]c3)c(F)c2)c(=O)n1-c1ccc(F)cc1 [Merestinib dihydrochloride] (2.5 µM) was tested. Which “number of time points” value did it give?
A: The value was 0.
